# Test results as given in US20250368959A1, “COMPOSITIONS AND METHODS FOR DIFFERENTIATING STEM CELLS INTO NK CELLS” (CRISPR THERAPEUTICS AG, priority 2022, published 2025).
# Some results were stated once for a whole list of compounds, not compound by compound.
# System: CD34^+ cells
# Experiment: CD34+ cell induction in Day 6 aggregates, Spin EB and modified Spin EB protocols (WNT signaling modulation)
# Type: cell-based, human
# Settings: added then followed by inhibitors (conditions 3 to 10)
smiles,measurement,value
"Cc1cnc(-c2cnc(NCCNc3ccc(C#N)cn3)nc2-c2ccc(Cl)cc2Cl)[nH]1 [CHIR-99021, 6-[[2-[[4-(2,4-Dichlorophenyl)-5-(5-methyl-1H-imidazol-2-yl)-2-pyrimidinyl]amino]ethyl]amino]-3-pyridinecarbonitrile]",percentage of CD34^+ cells compared to basic SpinEB protocol condition,2-3 times higher
